Values from PubChem BioAssay AID1671195 (Yale University, 2021).
Purpose: 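Knockdowns that increase or decrease uptake of fluorescent LDL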 (primary screen). Cells: human Huh7 hepatoma cells. Reagent: siRNA pool against human genes, 18 nM. Duration: about 2 to 2.5 days of knockdown, then 8 h LDL uptake. Treatment: DiI-labelled LDL at 30 µg/ml for 8 h, in lipoprotein-deficient serum medium. Detection: 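Per-cell DiI-LDL intensity by automated imaging; well means scaled to the plate median and given as a robust z-score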. Direction: robust z-score: higher = more LDL uptake after knockdown. Rule for the call: 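a gene counts as active if at least two replicate z-scores exceed ±2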.
Here is an unselected part of about 22,000 reagents. In the full data, about 1,510 (6.9%) were called active. 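Active includes knockdowns raising or lowering LDL uptake; positive z-scores mean more uptake, negative mean less.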

gene symbol | PubChem SID | robust z-score, replicate 1 | robust z-score, replicate 2 | robust z-score, replicate 3 | Outcome
LOC441610 (retired record) | SID442894575 | -0.361 | 0.0312 | 0.099 | inactive
FAR1 | SID442892639 | 0.142 | 0.341 | -0.0569 | inactive
EN1 | SID442903856 | -0.901 | -1.86 | -1.48 | inactive
RNASE4 | SID442887538 | 1.05 | 1.01 | 0.614 | inactive
LTV1 | SID442894374 | 0.401 | -0.00606 | -0.567 | inactive
PDE7A | SID442901603 | -0.891 | -0.793 | -1.09 | inactive
HIC2 | SID442884489 | -1.8 | -2.29 | -2.53 | active
LOC401057 (retired record) | SID442895642 | -0.314 | -0.373 | 0.118 | inactive
FUOM | SID442896444 | -0.267 | -0.349 | -0.205 | inactive
LOC401923 (retired record) | SID442888507 | 0.865 | 0.657 | 0.601 | inactive
TFCP2L1 | SID442900654 | -0.923 | -0.639 | -0.803 | inactive
CDK5R2 | SID442888306 | -0.181 | 0.0434 | 2.37 | inactive
LOC440472 (retired record) | SID442901709 | -0.799 | -1.08 | -0.952 | inactive
CHUK | SID442888000 | 0.31 | 0.142 | 1.95 | inactive
LOC401460 (retired record) | SID442900805 | -0.863 | -1.15 | -0.415 | inactive
LINC02860 | SID442894288 | -0.125 | -0.00526 | -0.00905 | inactive
CXorf58 | SID442894481 | -0.0728 | -0.111 | -0.0196 | inactive
TGDS | SID442892997 | 0.126 | 0.554 | -0.383 | inactive
PPP2R3A | SID442885081 | 2.18 | 1.5 | 1.39 | inactive
CGNL1 | SID442889141 | 0.926 | 0.373 | 0.52 | inactive
SECTM1 | SID442902196 | -0.779 | -0.276 | -2.03 | inactive
ZSCAN2 | SID442898429 | -0.836 | -0.513 | -0.143 | inactive
KRT8 | SID442892149 | -0.23 | 0.588 | 0.25 | inactive
OR51S1 | SID442890104 | 0.449 | 0.369 | 0.572 | inactive
NF2 | SID442885978 | 0.214 | 1.14 | 2.56 | inactive
RIT2 | SID442896119 | 0.695 | -1.03 | -0.383 | inactive
HSDL2 | SID442894597 | 0.266 | -0.26 | -0.247 | inactive
LOC440729 (retired record) | SID442899495 | -0.393 | -0.641 | -0.849 | inactive
NOVA1-DT | SID442889121 | 0.727 | 0.284 | 0.819 | inactive
CIRSR | SID442901829 | -0.575 | -1.16 | -1.17 | inactive
MAGEC1 | SID442899155 | -1.83 | -1.31 | 1.38 | inactive
MACROH2A1 | SID442893197 | 0.0841 | 0.322 | -0.172 | inactive
HERPUD2 | SID442891304 | 0.589 | 0.0457 | 0.274 | inactive
LOC391717 (retired record) | SID442886249 | 1.18 | 1.34 | 1.14 | inactive
ANKRD42 | SID442902637 | -1.02 | -1.04 | -1.3 | inactive
CEBPD | SID442887799 | -0.25 | 0.164 | 2.6 | inactive
NCDN | SID442896056 | -0.743 | 0.678 | -0.635 | inactive
LOC388545 (retired record) | SID442885148 | 1.57 | 1.66 | 1.73 | inactive
GABARAPL2 | SID442889384 | 0.757 | -0.072 | 1.02 | inactive
CALB1 | SID442890391 | 0.353 | 0.38 | 0.537 | inactive
LOC388639 (retired record) | SID442903512 | -1.41 | -1.46 | -1.07 | inactive
METTL23 | SID442894748 | -0.677 | -0.394 | 0.778 | inactive
PLSCR2 | SID442898114 | -1.13 | -0.283 | 0.0245 | inactive
IL38 | SID442897463 | -0.507 | -0.538 | -0.121 | inactive
MOSPD1 | SID442898608 | -1.21 | -2.13 | 1.79 | inactive
ZSCAN26 | SID442885292 | 1.31 | 1.99 | 1.44 | inactive
PASD1 | SID442888076 | -0.00807 | 1.12 | 1.25 | inactive
NECAP1 | SID442888888 | 3.16 | -2.16 | 0.934 | inactive
WTIP | SID442899375 | -0.699 | -0.497 | -0.638 | inactive
KCNG4 | SID442885912 | 1.36 | 1.43 | 1.19 | inactive
HNRNPH2 | SID442883915 | 2.17 | 1.93 | 2.36 | active
LOC387888 (retired record) | SID442895234 | -0.512 | 0.216 | -0.148 | inactive
LOC440725 (retired record) | SID442888301 | 0.674 | 0.829 | 0.733 | inactive
NBPF18P | SID442893368 | 0.0126 | -0.131 | 0.297 | inactive
RAB13 | SID442899675 | -0.638 | -1.18 | -0.138 | inactive
TEAD1 | SID442885862 | 1.24 | 1.45 | 1.33 | inactive
SLC71A2 | SID442884499 | -2.38 | -2.18 | -2.17 | active
ZGRF1 | SID442900926 | 0.123 | -1.99 | -0.615 | inactive
ZGRF1 | SID442901377 | -0.628 | -1.19 | -0.862 | inactive
RIBC1 | SID442888158 | 0.726 | 0.678 | 0.918 | inactive
LINC00905 | SID442891674 | 0.13 | -0.146 | 0.787 | inactive
PROKR1 | SID442895838 | 0.109 | -0.683 | -0.0596 | inactive
GPR108 | SID442888055 | 0.214 | 1.65 | 0.505 | inactive
AQP9 | SID442897683 | -0.328 | -0.531 | -0.378 | inactive
RABGGTB | SID442885651 | 2.07 | 1.26 | 0.927 | inactive
RASD2 | SID442892064 | -0.0766 | -0.661 | 1.37 | inactive
LOC389199 | SID442885627 | 1.21 | 1.9 | 1.19 | inactive
FAM241B | SID442885448 | 1.66 | 1.74 | 1.12 | inactive
